The values below come from PubChem BioAssay AID2685 (National Center for Advancing Translational Sciences (NCATS), 2010).

Some of the results follow. Shown are side measurements of this screen, not its main read-out; they come without a call. Most of these compounds were active or inconclusive in the main read-out, so they are no random draw. Potencies come from curve fits of mixed quality, noted in brackets.

The assay in a line: qHTS Assay for Lipid Storage Modulators in Drosophila S3 Cells.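 As to cell number change: cells counted by Cell Tracker Red CMTPX staining in the red channel.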 The conditions noted are these: BODIPY lipid droplet fluorescence, 18-24 h; for cell number change: measured here: cell count max response, cells fed with added oleic acid. Put shortly: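 Laser-scanning cytometry quantifies lipid droplet accumulation (500–530 nm total intensity; droplet/cell object ratio) in oleic acid-fed (400 uM added) Drosophila S3 cells treated with a concentration series. 20 uM Triacsin C defined 100% inhibition.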
(In general: Quantitative high-throughput screening tests each substance at several concentrations.)

Setting [1] is: measured here: cell number channel AC50, cells fed with added oleic acid.
[2] abbreviates: measured here: lipid fluorescence (Fed channel) AC50, cells fed with added oleic acid.

The term AC50 denotes the midpoint of the concentration-response curve, whichever way the signal moves. A low value points to activity at low concentration. For `Cc1ccccc1-c1nnc(SCC(=O)N(CC(C)C)c2c(N)n(CC(C)C)c(=O)[nH]c2=O)n1C`, the cell number change stood at 28%. For the same compound, the AC50 under setting [1] is 0.00461 µM [rising, full curve, poor fit].
On to `Cc1ccc2c(c1)c(C)c(C)n2CC(O)Cn1nc(C)c(Br)c1C` (stereo not given), for which the cell number change is -66.4%. Moreover, the AC50 under setting [1] is 23.1 µM [falling, single point]. Also, the AC50 under setting [2] is 32.6 µM [falling, single point].
For `CC(C)c1c(C(=O)N/N=C/c2ccc(-c3ccccc3)cc2)nnn1-c1nonc1N`, the cell number change was 8.26%.
`Cc1sc(NC(=O)c2ccco2)c(CN2CCC(C)CC2)c1C`: the cell number change was 43%. Moreover, under setting [1], the AC50 is 23.1 µM [rising, single point].
On to `Cc1c(C(=O)NCc2ccccn2)oc2ccccc12`, for which the cell number change was 11.5%. Under setting [2], the AC50 was 7.31 µM [rising, partial curve].
Consider `Cc1cccc(NC(=O)Cn2c(O)c(N=NC(=O)c3ccccc3O)c3ccccc32)c1`, for which the cell number change was -81.2%. In addition, the AC50 under setting [1] was 29.1 µM [falling, single point]. The AC50 under setting [2] was 5.8 µM [falling, partial curve, poor fit].
On to `Cc1cccc(N2CCN(CCCNC(=O)c3ccc(NC(=O)C4=CSCCO4)cc3)CC2C)c1` (stereo not given), for which the cell number change was 1.52%. Also, the AC50 under setting [1] was 2.59 µM [rising, partial curve, poor fit]. For the same compound, the AC50 under setting [2] is 20.6 µM [rising, single point].
`CCOC(=O)c1cc(=O)n2nc(-c3ccccc3F)nc2s1`: the cell number change came to 12.3%. Moreover, the AC50 under setting [1] is 0.58 µM [rising, full curve, poor fit].
Consider `CCOc1ccc(Cn2ccnc2CCl)cc1[N+](=O)[O-]`, for which the cell number change is -4.29%. Besides, the AC50 under setting [2] was 3.26 µM [rising, single point].
As for `COc1ccc(CCNC(=O)CN2C(=O)COc3ccc(S(=O)(=O)N4CCCC4)cc32)c(OC)c1`, the cell number change was -8.56%. Moreover, the AC50 under setting [1] is 0.146 µM [rising, full curve, poor fit].
With `Cc1ccc(N2C(=O)c3ccc(C(=O)N4CCN(c5ccc(C)c(C)c5)CC4)cc3C2=O)cc1`, the cell number change came to 2.64%. The AC50 under setting [2] was 0.0731 µM [falling, full curve, poor fit].
As to `Cc1cccc(C)c1NC(=O)CN1CCN(CC(=O)NCC2(N3CCCCC3)CCCCC2)CC1`, the cell number change was 8.92%. Also, the AC50 under setting [2] was 3.26 µM [rising, partial curve].
Consider `CCCCOC(=O)c1ccc(Nc2ccc([N+](=O)[O-])cn2)cc1`, for which the cell number change was found to be 7.67%. Moreover, the AC50 under setting [2] was 0.58 µM [rising, full curve].
For `COc1ccc(C2c3c(oc4c(C)cc(C)cc4c3=O)C(=O)N2Cc2cccnc2)cc1OC` (stereo not given), the cell number change came out at 26.4%.
As for `Cc1cc(CNC(=O)[C@H](C)[C@@H]2C[C@@]2(C)[C@@H](NC(=O)OCc2ccccc2)c2ccccc2)nn1C`, the AC50 under setting [2] is 13 µM [rising, partial curve, poor fit].
Turning to `Nc1ccc2nc(-c3ccccc3)sc2c1`, the cell number change is -24.3%. Further, the AC50 under setting [2] is 0.731 µM [rising, full curve].
As to `COc1cccc(CN2CCN(C(=O)c3ccc(-c4ccccc4)cc3)CC2)c1OC`, the cell number change is -26.6%. Besides, the AC50 under setting [2] is 29.1 µM [falling, single point].
Take `C=CCn1c2ccccc2c(=O)c2cc(C#CC[C@@H](C)O)ccc21`: the cell number change came out at 6.34%. Also, the AC50 under setting [2] was 0.0366 µM [falling, full curve].
For `Cc1csc2nc(=O)c3ccccc3n12`, the cell number change amounted to 231%. The AC50 under setting [1] was 16.4 µM [rising, partial curve]. In addition, the AC50 under setting [2] is 1.3 µM [rising, full curve].
Regarding `CC1CCCN(S(=O)(=O)c2cccc3nonc23)C1` (stereo not given), the cell number change is -13.3%. For the same compound, the AC50 under setting [2] was 0.651 µM [falling, partial curve, poor fit].
For `CCN(C(=O)COC(=O)c1ccc(COc2ccc3c(C)cc(=O)oc3c2)cc1)C1CCS(=O)(=O)C1` (stereo not given), the cell number change came to 12.8%. The AC50 under setting [2] was 6.51 µM [rising, single point].
On to `COc1cc(CN/C(C)=C(\C#N)C(N)=O)cc(OC)c1OC`, for which the AC50 under setting [1] is 6.51 µM [rising, partial curve, poor fit].
Regarding `CCOc1ccc(CCNC(=O)Cn2ncn3nc(-c4ccc(OC)cc4)cc3c2=O)cc1`, the cell number change worked out at 6.92%. Moreover, the AC50 under setting [2] is 0.82 µM [falling, single point].
On to `O=C(CSc1ncc(-c2ccccc2)n1C1CCCC1)N1CCc2ccccc21`, for which the cell number change was -39.8%. In addition, the AC50 under setting [2] was 32.6 µM [falling, single point].
On to `CC(C)(C)N1CCC1C(N)=O` (stereo not given), for which the cell number change turned out to be 5.8%. In addition, under setting [2], the AC50 was 0.00411 µM [rising, full curve, poor fit].
Regarding `CN(C)c1ncc(CN2CCC(C(=O)Nc3ccc(-n4cccn4)cc3)CC2)s1`, the cell number change worked out at 23.8%. The AC50 under setting [2] was 35.5 µM [rising, partial curve, poor fit].
Turning to `CSc1cccc(NS(=O)(=O)c2ccc3c(c2)CCN3C(C)=O)c1`, the cell number change was -30.1%. The AC50 under setting [1] is 20.6 µM [falling, single point]. Moreover, the AC50 under setting [2] is 20.6 µM [falling, partial curve].
For `CNC(=O)N1c2ccccc2C=Cc2ccccc21`, the cell number change amounted to 0.702%. Besides, the AC50 under setting [2] was 3.66 µM [rising, single point].
Take `Cn1c(SCc2nnc(-c3ccccc3Br)o2)nc2sc3c(c2c1=O)CCC3`: the cell number change was -34.6%. Further, the AC50 under setting [1] was 9.2 µM [falling, partial curve]. In addition, the AC50 under setting [2] is 1.46 µM [rising, full curve].
With `CC(=O)NCCOc1nc(N2CCCCC2)nc(N2CCCCC2)n1`, the cell number change worked out at 6.84%. The AC50 under setting [2] was 2.06 µM [rising, partial curve].
With `CCOc1ccccc1CNC(=O)C1CCCN(c2nn3c(=O)cc(C)nc3s2)C1` (stereo not given), the cell number change is 9.92%.
Regarding `COc1ccc(CC(=O)N/N=C(\C)c2ccccn2)cc1`, the cell number change came out at 18.5%. Under setting [2], the concentration at half-maximal activity (AC50) is 0.259 µM [rising, full curve, poor fit].
Turning to `O=C(/C=C/c1cccc([N+](=O)[O-])c1)OC1CCCCC1=O` (stereo not given), the cell number change was -48.7%. In addition, the AC50 under setting [1] was 0.82 µM [falling, full curve].
Take `Cc1ccc(S(=O)(=O)NC(Cc2ccccc2)C(=O)NN)cc1` (stereo not given): the cell number change was 1.94%. Under setting [2], the AC50 was 6.51 µM [rising, partial curve].
On to `O=C(CN(C(=O)CCC(=O)Nc1nccs1)c1ccc(F)c(Cl)c1)NCC1CCCO1` (stereo not given), for which the cell number change came out at 10.4%. Further, under setting [2], the AC50 is 0.411 µM [falling, full curve, poor fit].
Take `O=C(OCC(=O)c1ccc(Cl)cc1Cl)c1ccc2c(c1)C(=O)N(c1cccc3ncccc13)C2=O`: the cell number change was 83.3%. Also, the AC50 under setting [1] is 8.2 µM [rising, partial curve, poor fit].
For `CCOc1ccc(CN2CCNC(=O)C2CC(=O)N(C)CC2CCOCC2)cc1` (stereo not given), the cell number change is -0.99%. Moreover, under setting [2], the AC50 is 29.1 µM [rising, single point].
Regarding `CCN(CC)S(=O)(=O)c1cccc(NC(=O)COC(=O)C2CC3C=CC2C3)c1` (stereo not given), the cell number change was -30.4%.
Consider `Cc1nc2c(ccc3nc(NC(=O)C4CC4)sc32)s1`, for which the cell number change was -21.9%. Also, the AC50 under setting [2] was 29.1 µM [falling, single point].
For the compound `N#CC1=C2N=C(N)c3ccccc3N2C2=C(C(=O)CCC2)C1c1ccccc1F` (stereo not given), the cell number change is -18.6%.
Consider `O=C(NCc1cnn(-c2ccc(F)cc2)c1)C1CCC(=O)N(C2CC2)C1` (stereo not given), for which the cell number change worked out at 2.89%. In addition, the AC50 under setting [2] is 29.1 µM [falling, single point].
For the compound `Cc1nc2c(sc(=S)n2Cc2ccco2)c(=O)n1CC(=O)Nc1cc(F)ccc1F`, the cell number change came out at 34.6%. Besides, the AC50 under setting [1] is 29.1 µM [rising, single point].
For `COc1ccc(-c2cc(COc3ccccc3)on2)cc1`, the cell number change came out at 50.3%. The AC50 under setting [1] is 16.4 µM [rising, single point].
On to `CCC(C)N1C(=O)CN(C2CCCCCC2)C(=O)C1c1ccccc1F` (stereo not given), for which the AC50 under setting [2] is 6.51 µM [rising, single point].
With `O=C(NCCN1CCOCC1)C1CCN(Cc2ccccc2O)CC1`, the cell number change is -51.5%. Moreover, the half-maximal activity concentration (AC50) under setting [2] was 29.1 µM [falling, single point].
Regarding `O=C(COc1ccc2c3c(c(=O)oc2c1)CCCC3)N1C[C@H]2C[C@@H](C1)c1cccc(=O)n1C2`, the cell number change was found to be 7.92%. For the same compound, the AC50 under setting [2] was 29.1 µM [falling, single point].
In the case of `C=CCOc1ccc(CN(C)C(=O)CN2C(=O)c3ccccc3C2=O)cc1`, the cell number change was -1.26%. Further, the AC50 under setting [2] is 29.1 µM [rising, single point].
For `CC1CCc2c(sc(N)c2C(N)=O)C1` (stereo not given), the cell number change was determined as 42.8%.
For `CN(C(=O)C1CCN(S(=O)(=O)c2cccs2)CC1)c1ccccc1`, the cell number change was 8.3%. Besides, under setting [2], the AC50 is 0.206 µM [rising, full curve, poor fit].
With `CCCn1c(C)cc(C(=O)COc2ccc(S(=O)(=O)N(CC)CC)cc2[N+](=O)[O-])c1C`, the concentration at half-maximal activity (AC50) under setting [2] is 23.1 µM [falling, partial curve, poor fit].
On to `Cc1ccccc1Cc1ccc(Cl)nn1`, for which the AC50 is 6.51 µM [rising, single point] under setting [1] and 6.51 µM [rising, single point] under setting [2].
As to `O=C(Nc1cccc(Cl)c1)C1C2C=CC3(O2)C1C(=O)N(CCCN1CCCCC1)C3C(=O)NC1CCCCC1` (stereo not given), the cell number change stood at 10.9%. Further, the AC50 under setting [2] is 0.231 µM [falling, full curve, poor fit].
As for `CCOC(=O)Nc1ccc([N+](=O)[O-])cc1C`, the cell number change was determined as 4.3%. The AC50 under setting [2] is 0.146 µM [rising, full curve, poor fit].
On to `CCOc1cc(N2CCOCC2)c(OCC)cc1NC(=O)COc1cccc(Cl)c1`, for which the cell number change was -19.5%. Also, under setting [2], the AC50 is 4.61 µM [falling, partial curve].
`CCOc1[nH]n(-c2ccc(Cl)cc2)c(=O)c1C=NCc1cccnc1`: the cell number change is -9.79%. Moreover, under setting [2], the AC50 is 0.731 µM [rising, single point].
In the case of `O=C(CSc1nc2ccccc2c(=O)n1Cc1ccc(F)cc1)NCc1cccs1`, the cell number change was 3.3%. Further, the AC50 under setting [2] was 20.6 µM [rising, single point].
`O=C(N/C(=C/c1cccc(Br)c1)c1nc(=S)[nH][nH]1)c1ccccc1`: the cell number change is -50.8%. Besides, the AC50 under setting [1] was 13 µM [falling, single point]. In addition, the AC50 under setting [2] is 13 µM [falling, partial curve].
For `CCn1c(N2CCC(C)CC2)nc2c1c(=O)n(C)c(=O)n2C`, the cell number change is -0.179%. Under setting [2], the AC50 is 0.146 µM [rising, full curve].
As for `Cc1ccc(NC(=O)CSc2n[nH]c(-c3ccccn3)n2)cc1`, the cell number change stood at 11.7%. Besides, the AC50 under setting [2] is 0.58 µM [rising, single point].
